Laboratory results taken from PubChem BioAssay AID2685 (National Center for Advancing Translational Sciences (NCATS), 2010).
The list shows a part of the results. These are further read-outs of the screen, such as a control signal, another cell line or another target. No call is given for them. The list favours compounds with an active or inconclusive main result. Potencies come from curve fits of mixed quality, noted in brackets.

Experiment: qHTS Assay for Lipid Storage Modulators in Drosophila S3 Cells;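 as to cell number change: cells counted by Cell Tracker Red CMTPX staining in the red channel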
Conditions: BODIPY lipid droplet fluorescence, 18-24 h; for cell number change: measured here: cell count max response, cells fed with added oleic acid
Summary of the method: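 Drosophila S3 cells got compounds at several concentrations plus oleic acid (400 uM solution). Laser-scanning cytometry with 488 nm excitation read lipid droplets at 500-530 nm and cells at 575-640 nm. Percent activity was relative to 20 uM Triacsin C.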

[1] = measured here: cell number channel AC50, cells fed with added oleic acid
[2] = measured here: lipid fluorescence (Fed channel) AC50, cells fed with added oleic acid

Row | Structure (SMILES) | cell number change [%] | AC50 [1] | AC50 [2]
1 | O=C1CSC(c2cn(-c3ccccc3)nc2-c2ccc3c(c2)OCCO3)N1CCN1CCOCC1 (stereo not given) | -0.68 |  | 
2 | CCOCCCNC(=O)C(NC(=O)c1cnccn1)c1ccc(C)cc1 (stereo not given) | -46.6 | 8.2 µM [falling, partial curve, poor fit] | 29.1 µM [falling, partial curve]
3 | O=S(=O)([N-]c1nc2ccccc2nc1-[n+]1ccccc1)c1ccc(F)cc1 | -41.7 | 23.1 µM [falling, single point] | 
4 | Cn1cc(-c2ccccc2C(=O)O)c(=O)c2cc(Cl)ccc21 | -29.6 |  | 29.1 µM [falling, partial curve, poor fit]
5 | CCCCC(=O)Nc1cccc(-c2ccc3nncn3n2)c1 | 5.97 |  | 5.17 µM [falling, full curve, poor fit]
6 | CC(=O)N(Cc1cccs1)C1CCOC(C)(C)C1 (stereo not given) | -8.42 |  | 0.651 µM [falling, single point]
7 | CN(CCO)C(=O)c1c(NC(=O)c2ccccc2)sc2c1CCCC2 | 7.02 |  | 
8 | O=C(NCC1c2ccccc2CCN1C(=O)CN1C(=O)c2ccccc2C1=O)C1CCCCC1 (stereo not given) | -69.7 | 20.6 µM [falling, partial curve] | 0.0461 µM [falling, full curve, poor fit]
9 | NNc1nc(-c2ccccc2)cc(-c2ccccc2O)n1 | -2.01 |  | 
10 | CC(Sc1nc2ccccc2n1C)C(=O)NC(c1ccccc1)c1ccccc1 (stereo not given) | -19.6 |  | 29.1 µM [falling, single point]
11 | CC(=O)Nc1ccc(NC(=O)COC(=O)/C=C/c2ccc3c(c2)OCO3)cc1 |  |  | 29.1 µM [falling, single point]
12 | C=CCN1C(=O)C2C(C(=O)NC)C3(C)C=CC2(O3)C1C(=O)NCc1ccc(OC)cc1 (stereo not given) | -16.6 | 0.651 µM [falling, partial curve, poor fit] | 18.4 µM [falling, single point]
13 | Cc1c(C(=O)Nc2cccnc2Cl)oc2ccccc12 | -23.8 |  | 0.82 µM [falling, full curve]
14 | COc1cc(/C=C(/C#N)c2nc3ccccc3[nH]2)ccc1Oc1ncccc1[N+](=O)[O-] | -10.3 |  | 32.6 µM [falling, partial curve, poor fit]
15 | O=C(NCc1cccnc1)c1cccc(NS(=O)(=O)c2ccc(Br)cc2)c1 | 85.5 | 7.31 µM [rising, partial curve] | 
16 | Cc1ccccc1-c1nnc2s/c(=C\c3ccc(N(C)C)cc3)c(=O)n12 | 25.2 | 2.31 µM [rising, full curve, poor fit] | 
17 | O=C(CSCC(=O)N1CCOCC1)Nc1nc(-c2ccccc2)cs1 | -26.5 |  | 29.1 µM [falling, single point]
18 | C[C@@]12CCC=C[C@H]1[C@H](c1ccc3ccccc3c1)N(Cc1ccccc1)C2=O | -8.58 |  | 
19 | Cc1cccc(NC(=O)c2ccc([N+](=O)[O-])s2)n1 | -42.2 | 14.6 µM [falling, single point] | 13 µM [falling, partial curve]

Row | Structure (SMILES) | cell number change [%] | AC50 [1] | AC50 [2]
20 | O=C1C(=O)N(CC(=O)N2CCCC2)c2ccccc21 | -32.5 |  | 32.6 µM [falling, partial curve, poor fit]
21 | CNC(=S)N(Cc1ccc2c(c1)OCO2)C1CC(=O)N(c2ccc(F)cc2)C1=O (stereo not given) | 144 | 10.3 µM [rising, partial curve] | 2.31 µM [rising, partial curve]
22 | CC(NC(=O)C1CCN(C(=O)[C@@H]2Cc3ccccc3CN2C(=O)OC(C)(C)C)CC1)c1ccccc1 (stereo not given in full) | -11.6 |  | 20.6 µM [falling, single point]
23 | Oc1ccc(-c2nc(-c3ccc(O)c(O)c3)cs2)cc1 |  |  | 2.31 µM [falling, full curve]
24 | CC(=O)c1ccc(OC(=O)c2ccc(-n3nc(C)cc3C)cc2)cc1 | -25.7 | 3.26 µM [rising, single point] | 23.1 µM [rising, single point]
25 | COc1ccc(-c2noc(CCC(=O)NCCN3CCN(c4ccccc4F)CC3)n2)cc1 | 3.38 | 0.13 µM [rising, full curve, poor fit] | 6.51 µM [rising, partial curve]
26 | O=C(Nc1ccc(Oc2ccccc2)nc1)C1CCCCN1Cc1ccco1 (stereo not given) | -42.8 | 13 µM [falling, single point] | 2.06 µM [falling, full curve, poor fit]
27 | COc1ccc(C(=O)C[n+]2ccccc2C)cc1 | 17.1 | 0.731 µM [falling, single point] | 4.11 µM [rising, full curve]
28 | CCCOC(=O)c1c(-c2ccc(C)cc2C)csc1NC(=O)C1C2CCC(O2)C1C(=O)O (stereo not given) | -62.2 | 36.6 µM [falling, partial curve] | 13 µM [falling, partial curve]
29 | CN(C(=O)c1nn(C)c2c1CS(=O)(=O)c1ccccc1-2)c1cccc(Cl)c1 |  |  | 29.1 µM [rising, single point]
30 | Cn1c2c(c(=O)n(C)c1=O)C(c1ccccc1Cl)C(C#N)=C(N)O2 (stereo not given) |  |  | 29.1 µM [falling, single point]
31 | CC(=O)Oc1ccc(/C=N/NC(=S)Nc2ccccc2)cc1 | -15.2 |  | 23.1 µM [rising, single point]
32 | CC(Sc1nnc2n1CCCCC2)C(=O)Nc1cccc(S(=O)(=O)N2CCOCC2)c1 (stereo not given) | 3.9 |  | 
33 | COc1cccc(COc2nc3c(c(=O)n(C)c(=O)n3C)n2C)c1 |  | 3.26 µM [rising, single point] | 0.58 µM [rising, single point]
34 | CCn1c(CCNC(=O)c2ccc(OC)cc2)nnc1SCC(=O)Nc1ccccc1F | -19.8 |  | 7.08 µM [falling, partial curve]
35 | CC(C)(C)n1cnc2cc(NCc3ccc(Br)cc3)ccc21 | 9.93 | 2.31 µM [rising, partial curve, poor fit] | 
36 | Cc1c(C(C)NC(=O)c2cc(COc3cccc4cnccc34)on2)cnn1C (stereo not given) | -32 | 29.1 µM [falling, single point] | 16.4 µM [falling, partial curve]
37 | COc1ccc(-c2noc(C3CCCN(C(=O)c4ccc(F)cc4)C3)n2)cc1 (stereo not given) | 11.1 |  | 
38 | COC(=O)C1=C(N)OC2=C(C(=O)CC(C)(C)C2)C1c1ccoc1 (stereo not given) | -0.219 |  | 0.461 µM [falling, full curve, poor fit]

Row | Structure (SMILES) | cell number change [%] | AC50 [1] | AC50 [2]
39 | CCOc1ccccc1NC(=O)Cn1nnc(C(=O)NCc2ccc3c(c2)OCO3)c1N | 24.2 |  | 
40 | Cc1cc(C)n2nc(SCC(=O)N(CCC#N)c3ccccc3F)nc2n1 | -49.4 | 5.8 µM [falling, partial curve, poor fit] | 6.51 µM [falling, partial curve, poor fit]
41 | O=C(NC(=S)Nc1cccc(-c2ccc(CO)o2)c1)c1cccs1 | -5.15 |  | 
42 | COc1ccc(C(=O)N2CCCC2)cc1S(=O)(=O)N1CCOCC1 |  |  | 4.61 µM [falling, single point]
43 | CCCCOC(=O)c1ccc(NC(=S)NC(=O)c2c(Cl)cnn2CC)cc1 | -5.5 |  | 
44 | COc1ccc(-c2cc3nc(C)n(N)c(=O)c3s2)cc1 | 12.4 | 2.31 µM [rising, single point] | 6.51 µM [rising, single point]
45 | CCOc1cc(/C=C/c2nc3ccccc3s2)ccc1OCC(=O)N1CCOCC1 | 7.57 | 6.51 µM [falling, single point] | 
46 | Cc1oc(C)c(C(=O)O)c1COc1ccc(C(=O)O)cc1 | 105 | 29.1 µM [rising, single point] | 
47 | COc1cc(C(=O)NC2CCCC(C)C2C)ccc1OCC(=O)N1CCOCC1 (stereo not given) | 8.55 |  | 3.26 µM [rising, single point]
48 | O=C(c1ccc(Cl)cc1)C(Cn1cncn1)C(Sc1ccccc1)c1ccccc1 (stereo not given) | 4.25 | 1.16 µM [rising, full curve] | 
49 | COc1ccc(-n2cnc3scc(-c4ccc(OC)c(OC)c4)c3c2=O)cc1 | -18.5 |  | 5.17 µM [falling, full curve]
50 | N#CNC(=Nc1ccc(Cl)cc1)Oc1ccccc1 | 4.35 | 0.0058 µM [falling, full curve, poor fit] | 29.1 µM [falling, partial curve, poor fit]
51 | COc1[nH]c(/N=C/c2ccccc2)c(C#N)c1C#N | -104 | 20.6 µM [falling, single point] | 23.1 µM [falling, partial curve]
52 | Cc1ccc2nc3n(c(=O)c2c1)-c1ccccc1C(=O)NC3Cc1ccccc1 (stereo not given) | -40.9 | 1.64 µM [falling, partial curve] | 0.0146 µM [rising, full curve]
53 | Cc1cccc(N2CCN(C(=S)c3ccc(-c4ccccc4[N+](=O)[O-])o3)CC2)c1 |  | 1.46 µM [falling, partial curve] | 23.1 µM [rising, partial curve]
54 | Cc1cccc(NC(=O)c2cc(-c3cc(C)ccc3O)n[nH]2)c1 | -19.9 |  | 7.31 µM [falling, partial curve]
55 | Cc1noc(C)c1C(=O)N1CCCC(Nc2ccc(C(C)C)cc2)C1 (stereo not given) | 9.39 |  | 6.51 µM [rising, full curve, poor fit]
56 | CCOC(=O)C(C)On1c(-c2ccc(Cl)cc2)nc2ccc([N+](=O)[O-])cc21 (stereo not given) | -16.1 | 0.0291 µM [rising, full curve, poor fit] | 1.84 µM [rising, partial curve, poor fit]

Not a retest: two of the compounds above.
Row | Structure (SMILES) | cell number change [%] | AC50 [1] | AC50 [2]
48 | O=C(c1ccc(Cl)cc1)C(Cn1cncn1)C(Sc1ccccc1)c1ccccc1 (stereo not given) | 4.25 | 1.16 µM [rising, full curve] | 
49 | COc1ccc(-n2cnc3scc(-c4ccc(OC)c(OC)c4)c3c2=O)cc1 | -18.5 |  | 5.17 µM [falling, full curve]
